In paper PMC11427100:
Results are given in words; binding and its absence hold for the method and conditions named. Binding seen in cells or lysates may run through a third protein. Some binding calls cover weakened binding; strength is not graded here.

Protein sequences, listed by entry. Tags and fused reporters are not part of them.
UniProt Q6R891: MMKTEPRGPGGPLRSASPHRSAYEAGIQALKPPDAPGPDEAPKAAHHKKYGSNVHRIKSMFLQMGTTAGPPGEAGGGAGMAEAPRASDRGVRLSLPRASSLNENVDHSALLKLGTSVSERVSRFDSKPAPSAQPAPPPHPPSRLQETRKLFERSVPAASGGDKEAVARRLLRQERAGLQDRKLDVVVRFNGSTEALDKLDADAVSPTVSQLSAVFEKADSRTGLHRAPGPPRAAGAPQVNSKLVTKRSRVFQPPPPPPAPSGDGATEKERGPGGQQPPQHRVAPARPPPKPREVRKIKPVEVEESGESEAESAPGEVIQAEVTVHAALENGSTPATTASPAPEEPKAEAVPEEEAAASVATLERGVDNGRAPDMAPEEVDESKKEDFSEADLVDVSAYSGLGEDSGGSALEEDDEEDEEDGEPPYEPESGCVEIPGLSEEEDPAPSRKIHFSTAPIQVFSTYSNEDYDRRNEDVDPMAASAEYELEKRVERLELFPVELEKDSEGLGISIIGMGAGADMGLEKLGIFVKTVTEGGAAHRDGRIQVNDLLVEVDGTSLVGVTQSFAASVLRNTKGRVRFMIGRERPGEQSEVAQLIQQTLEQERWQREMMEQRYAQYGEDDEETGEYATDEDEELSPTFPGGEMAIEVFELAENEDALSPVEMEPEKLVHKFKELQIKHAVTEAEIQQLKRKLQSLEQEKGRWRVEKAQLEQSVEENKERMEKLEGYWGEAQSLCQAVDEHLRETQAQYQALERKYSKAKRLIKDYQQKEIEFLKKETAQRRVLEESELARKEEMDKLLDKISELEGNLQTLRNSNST
UniProt H3BJD6: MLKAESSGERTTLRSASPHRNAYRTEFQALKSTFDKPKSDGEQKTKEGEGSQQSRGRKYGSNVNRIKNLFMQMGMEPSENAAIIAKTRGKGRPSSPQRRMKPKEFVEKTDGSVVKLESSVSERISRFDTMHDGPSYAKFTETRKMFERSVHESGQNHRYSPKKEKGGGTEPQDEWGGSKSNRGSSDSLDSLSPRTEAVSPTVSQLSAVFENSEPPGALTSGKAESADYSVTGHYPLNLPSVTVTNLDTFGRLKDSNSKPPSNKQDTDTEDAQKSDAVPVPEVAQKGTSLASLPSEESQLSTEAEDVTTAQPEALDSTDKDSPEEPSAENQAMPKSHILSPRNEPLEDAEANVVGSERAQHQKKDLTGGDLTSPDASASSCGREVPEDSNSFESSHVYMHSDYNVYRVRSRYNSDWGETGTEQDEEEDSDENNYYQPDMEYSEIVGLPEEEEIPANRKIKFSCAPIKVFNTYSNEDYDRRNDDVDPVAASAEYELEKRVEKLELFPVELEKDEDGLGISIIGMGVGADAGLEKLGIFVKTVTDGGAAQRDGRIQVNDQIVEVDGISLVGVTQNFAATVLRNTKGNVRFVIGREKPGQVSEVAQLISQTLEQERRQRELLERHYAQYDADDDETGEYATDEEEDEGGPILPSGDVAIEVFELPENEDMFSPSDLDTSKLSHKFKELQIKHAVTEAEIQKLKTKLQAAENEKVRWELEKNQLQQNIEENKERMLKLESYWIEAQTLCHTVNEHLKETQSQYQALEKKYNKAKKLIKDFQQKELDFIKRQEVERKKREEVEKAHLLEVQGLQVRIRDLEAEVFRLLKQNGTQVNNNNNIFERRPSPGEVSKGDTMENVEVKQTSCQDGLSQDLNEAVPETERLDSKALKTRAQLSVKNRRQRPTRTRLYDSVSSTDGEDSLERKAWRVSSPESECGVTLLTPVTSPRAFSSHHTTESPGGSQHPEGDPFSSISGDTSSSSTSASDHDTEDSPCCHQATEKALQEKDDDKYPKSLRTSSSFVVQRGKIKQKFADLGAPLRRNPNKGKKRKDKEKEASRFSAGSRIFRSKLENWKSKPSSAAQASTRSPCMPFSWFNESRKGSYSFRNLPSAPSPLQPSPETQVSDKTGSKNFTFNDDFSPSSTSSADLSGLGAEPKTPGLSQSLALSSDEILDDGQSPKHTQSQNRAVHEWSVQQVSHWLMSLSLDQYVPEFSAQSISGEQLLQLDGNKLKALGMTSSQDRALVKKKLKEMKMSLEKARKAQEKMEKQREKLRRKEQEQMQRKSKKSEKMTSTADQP

Target: Spinophilin (mouse (endogenous in pancreas and isolated islets)) (UniProt Q6R891)
Assay: co-IP; spinophilin immunoprecipitated from pancreas lysate (RIPA) of adult WT, Ins2^Akita and Lepr^db/db mice; immunoblot for PP1α, myosin-9, neurabin

Neurabin-1 (from UniProt H3BJD6 1-1292)
binding: binds
